From publication PMC4860961
No constants are given. Whether binding was seen depends on the method and setting. In cells and extracts the contact can be indirect. Some results given as binding are weak or reduced against the parent protein; the word gives no strength.

Amino acid sequences for entries named in this document (tags omitted). A change or cut given only in a name is not applied to a line headed by its entry. Residues count along the entry.
UniProt O00308: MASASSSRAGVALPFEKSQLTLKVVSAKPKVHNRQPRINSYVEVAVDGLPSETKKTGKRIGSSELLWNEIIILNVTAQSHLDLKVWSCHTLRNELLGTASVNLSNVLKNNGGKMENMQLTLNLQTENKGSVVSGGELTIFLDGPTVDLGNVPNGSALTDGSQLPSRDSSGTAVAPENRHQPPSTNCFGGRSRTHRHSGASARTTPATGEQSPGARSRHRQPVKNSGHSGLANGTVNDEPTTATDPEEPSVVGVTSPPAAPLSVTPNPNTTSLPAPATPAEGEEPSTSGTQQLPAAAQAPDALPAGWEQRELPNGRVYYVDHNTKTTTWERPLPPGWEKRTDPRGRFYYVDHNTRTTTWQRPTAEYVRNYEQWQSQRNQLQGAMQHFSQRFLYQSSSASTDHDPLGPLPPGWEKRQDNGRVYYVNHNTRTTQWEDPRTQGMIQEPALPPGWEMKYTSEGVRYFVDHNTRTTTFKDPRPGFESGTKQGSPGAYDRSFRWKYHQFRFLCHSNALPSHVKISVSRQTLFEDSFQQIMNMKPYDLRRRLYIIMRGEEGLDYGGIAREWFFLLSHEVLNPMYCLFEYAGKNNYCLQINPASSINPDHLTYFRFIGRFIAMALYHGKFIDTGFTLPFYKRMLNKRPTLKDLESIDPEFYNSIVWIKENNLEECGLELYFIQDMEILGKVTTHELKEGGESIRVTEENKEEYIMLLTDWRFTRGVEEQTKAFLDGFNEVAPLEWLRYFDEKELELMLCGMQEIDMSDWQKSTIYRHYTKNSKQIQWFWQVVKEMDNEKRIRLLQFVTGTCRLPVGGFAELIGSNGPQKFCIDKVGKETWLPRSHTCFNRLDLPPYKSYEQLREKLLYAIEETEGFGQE
Flag-WWP2 C2 domain (truncation mutant): residues 1-117 of O00308
Flag-WWP2 HECT domain (truncation mutant): residues 536-870 of O00308
UniProt Q96PU5: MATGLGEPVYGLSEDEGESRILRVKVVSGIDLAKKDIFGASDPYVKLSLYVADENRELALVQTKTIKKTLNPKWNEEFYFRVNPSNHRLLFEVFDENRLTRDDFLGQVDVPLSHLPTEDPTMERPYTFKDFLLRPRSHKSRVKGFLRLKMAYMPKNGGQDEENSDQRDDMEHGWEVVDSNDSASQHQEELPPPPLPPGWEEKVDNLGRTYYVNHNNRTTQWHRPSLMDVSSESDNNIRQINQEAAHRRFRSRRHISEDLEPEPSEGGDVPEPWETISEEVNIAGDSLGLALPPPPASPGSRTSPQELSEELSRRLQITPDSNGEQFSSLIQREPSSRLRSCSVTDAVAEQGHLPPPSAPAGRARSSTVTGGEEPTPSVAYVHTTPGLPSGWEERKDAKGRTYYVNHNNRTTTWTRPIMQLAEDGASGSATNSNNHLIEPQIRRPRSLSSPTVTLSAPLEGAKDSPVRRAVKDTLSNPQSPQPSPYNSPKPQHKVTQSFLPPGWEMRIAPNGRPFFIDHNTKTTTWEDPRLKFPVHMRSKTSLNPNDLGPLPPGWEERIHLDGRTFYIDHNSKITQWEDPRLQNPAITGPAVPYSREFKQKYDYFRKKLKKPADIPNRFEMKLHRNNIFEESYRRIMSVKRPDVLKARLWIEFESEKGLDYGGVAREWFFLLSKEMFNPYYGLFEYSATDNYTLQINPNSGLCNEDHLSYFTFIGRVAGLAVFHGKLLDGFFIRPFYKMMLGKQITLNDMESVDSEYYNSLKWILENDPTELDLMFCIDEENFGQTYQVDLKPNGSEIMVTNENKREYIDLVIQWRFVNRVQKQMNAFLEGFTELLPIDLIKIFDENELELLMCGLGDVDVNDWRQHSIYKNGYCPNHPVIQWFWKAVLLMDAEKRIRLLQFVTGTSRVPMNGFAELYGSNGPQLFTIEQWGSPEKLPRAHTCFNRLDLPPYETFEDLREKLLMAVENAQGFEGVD
UniProt Q9UM11: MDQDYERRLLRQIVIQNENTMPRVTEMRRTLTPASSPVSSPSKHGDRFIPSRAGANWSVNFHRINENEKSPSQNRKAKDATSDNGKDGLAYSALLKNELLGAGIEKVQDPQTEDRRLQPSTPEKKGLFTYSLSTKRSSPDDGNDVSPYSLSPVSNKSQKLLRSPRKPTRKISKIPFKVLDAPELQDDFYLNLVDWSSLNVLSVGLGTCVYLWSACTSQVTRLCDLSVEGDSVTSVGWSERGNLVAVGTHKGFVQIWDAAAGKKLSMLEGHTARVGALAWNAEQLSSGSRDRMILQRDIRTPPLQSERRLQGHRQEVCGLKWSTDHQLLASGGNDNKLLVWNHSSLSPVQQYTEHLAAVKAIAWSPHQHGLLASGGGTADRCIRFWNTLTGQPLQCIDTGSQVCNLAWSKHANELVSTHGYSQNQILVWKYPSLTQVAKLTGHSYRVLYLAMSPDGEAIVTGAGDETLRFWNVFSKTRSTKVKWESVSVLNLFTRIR

What was measured:
[1] = biological target: GST-C2 (purified C2 domain of WWP2) (human) (UniProt O00308); assay: pull-down; GST-fusion proteins on Glutathione Sepharose 4B incubated with 35S-labeled in vitro transcribed and translated Cdh1 in NETN buffer (20 mM Tris pH 8.0, 100 mM NaCl, 1 mM EDTA, 0.5% NP-40), 3-4 h at 4 °C; autoradiography; only the target purified
GST-WWP2 (human) = GST-WWP2 (human) (UniProt O00308); assay: as above
[2] = biological target: Flag-WWP2 HECT domain (truncation mutant) (human) (UniProt O00308); assay: co-IP; 293T cells transfected with Flag-, HA- or Myc-tagged constructs; 36 h after transfection 10 μM MG132 (10 h) before collecting; lysis in EBC buffer (50 mM Tris pH 7.5, 120 mM NaCl, 0.5% NP-40), washes in NETN buffer; for the WWP2 domains with and without added Cdh1
Flag-WWP1 = Flag-WWP1 (UniProt Q9H0M0); assay: as above
Flag-WWP2 (human) = Flag-WWP2 (human) (UniProt O00308); assay: as above
[3] = biological target: Flag-WWP2 C2 domain (truncation mutant) (human) (UniProt O00308); assay: as above
Flag-NEDD4L = Flag-NEDD4L (UniProt Q96PU5); assay: as above

Measured: binding

35S-labeled in vitro transcribed and translated Cdh1 (from UniProt Q9UM11 1-496)
binds: [1] | GST-WWP2 (human)

HA-Cdh1 (from UniProt Q9UM11 1-496)
not listed: [1] | GST-WWP2 (human)
binds: all other assays above
